Measurements taken from the supplement of paper PMC12067093, “Discovery and optimisation of a covalent ligand for TRIM25 and its application to targeted protein ubiquitination” (Chemical Science, 2025).
The other results are listed elsewhere or left out.

Protein sequences, listed by entry. Tags and fused reporters are not part of them. Lines headed by an entry give the natural chain unless they say otherwise; changes in a name come on top.
UniProt Q12769: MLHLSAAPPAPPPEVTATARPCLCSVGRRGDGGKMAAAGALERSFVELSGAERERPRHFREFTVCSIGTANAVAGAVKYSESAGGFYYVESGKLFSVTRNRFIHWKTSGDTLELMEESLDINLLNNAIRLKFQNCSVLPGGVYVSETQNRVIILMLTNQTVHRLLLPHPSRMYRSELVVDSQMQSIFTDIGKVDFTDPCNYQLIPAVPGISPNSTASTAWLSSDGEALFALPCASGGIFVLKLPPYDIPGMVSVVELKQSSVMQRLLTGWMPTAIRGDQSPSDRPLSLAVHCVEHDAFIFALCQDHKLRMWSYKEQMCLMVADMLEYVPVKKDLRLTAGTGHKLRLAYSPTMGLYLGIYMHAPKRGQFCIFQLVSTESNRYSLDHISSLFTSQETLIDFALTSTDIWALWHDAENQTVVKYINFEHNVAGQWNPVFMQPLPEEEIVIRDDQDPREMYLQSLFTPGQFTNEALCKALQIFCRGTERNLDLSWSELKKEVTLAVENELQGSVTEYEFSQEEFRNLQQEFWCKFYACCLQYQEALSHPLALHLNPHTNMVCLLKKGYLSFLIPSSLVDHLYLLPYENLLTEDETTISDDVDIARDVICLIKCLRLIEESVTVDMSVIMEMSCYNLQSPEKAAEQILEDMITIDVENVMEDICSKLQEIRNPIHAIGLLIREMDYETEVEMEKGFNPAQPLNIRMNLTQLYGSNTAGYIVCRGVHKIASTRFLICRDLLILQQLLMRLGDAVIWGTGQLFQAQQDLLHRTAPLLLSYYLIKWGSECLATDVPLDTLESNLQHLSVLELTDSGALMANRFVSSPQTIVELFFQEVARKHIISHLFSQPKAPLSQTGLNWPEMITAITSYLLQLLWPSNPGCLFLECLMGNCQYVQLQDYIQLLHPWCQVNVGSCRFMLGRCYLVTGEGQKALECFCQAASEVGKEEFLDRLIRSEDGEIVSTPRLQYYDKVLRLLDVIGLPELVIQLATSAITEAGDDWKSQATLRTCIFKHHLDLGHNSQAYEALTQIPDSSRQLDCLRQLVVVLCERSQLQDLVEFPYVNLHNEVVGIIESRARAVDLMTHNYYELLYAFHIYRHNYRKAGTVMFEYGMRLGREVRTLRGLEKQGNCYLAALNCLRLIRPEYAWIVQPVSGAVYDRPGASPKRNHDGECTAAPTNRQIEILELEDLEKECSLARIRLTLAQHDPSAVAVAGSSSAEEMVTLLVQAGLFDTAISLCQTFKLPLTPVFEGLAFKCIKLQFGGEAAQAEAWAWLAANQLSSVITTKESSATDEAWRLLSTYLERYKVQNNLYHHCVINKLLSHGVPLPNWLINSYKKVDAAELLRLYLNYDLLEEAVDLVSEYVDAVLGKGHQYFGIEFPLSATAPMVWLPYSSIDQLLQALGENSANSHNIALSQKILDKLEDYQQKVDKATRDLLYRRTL
UniProt P50583: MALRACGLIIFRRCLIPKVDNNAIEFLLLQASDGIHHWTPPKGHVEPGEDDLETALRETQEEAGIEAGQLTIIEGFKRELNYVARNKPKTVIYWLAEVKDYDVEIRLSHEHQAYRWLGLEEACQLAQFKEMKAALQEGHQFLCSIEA
UniProt Q9Y5A7: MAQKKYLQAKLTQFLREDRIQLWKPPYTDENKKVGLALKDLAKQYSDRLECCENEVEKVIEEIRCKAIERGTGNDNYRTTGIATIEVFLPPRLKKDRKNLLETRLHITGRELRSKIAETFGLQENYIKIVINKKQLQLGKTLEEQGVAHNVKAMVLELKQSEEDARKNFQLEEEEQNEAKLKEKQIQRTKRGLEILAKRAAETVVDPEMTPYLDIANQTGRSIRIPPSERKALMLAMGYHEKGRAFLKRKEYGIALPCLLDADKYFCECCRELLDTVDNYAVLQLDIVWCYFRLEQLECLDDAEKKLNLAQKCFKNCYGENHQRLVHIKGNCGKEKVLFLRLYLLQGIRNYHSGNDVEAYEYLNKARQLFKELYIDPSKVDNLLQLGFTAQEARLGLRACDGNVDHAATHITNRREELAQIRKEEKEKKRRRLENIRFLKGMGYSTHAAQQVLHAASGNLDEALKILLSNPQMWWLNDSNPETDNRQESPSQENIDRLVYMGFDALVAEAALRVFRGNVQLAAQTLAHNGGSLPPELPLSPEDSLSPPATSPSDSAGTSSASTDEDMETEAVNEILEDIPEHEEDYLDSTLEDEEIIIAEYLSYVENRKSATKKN
UniProt Q96E22: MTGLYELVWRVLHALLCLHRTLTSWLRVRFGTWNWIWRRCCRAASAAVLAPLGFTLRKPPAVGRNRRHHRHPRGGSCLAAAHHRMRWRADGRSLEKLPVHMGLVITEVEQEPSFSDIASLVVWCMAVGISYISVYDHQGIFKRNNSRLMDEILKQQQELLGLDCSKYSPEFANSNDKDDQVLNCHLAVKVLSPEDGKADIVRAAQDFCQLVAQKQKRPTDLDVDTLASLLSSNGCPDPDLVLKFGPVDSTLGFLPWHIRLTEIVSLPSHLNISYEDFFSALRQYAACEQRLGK
UniProt Q9BW27: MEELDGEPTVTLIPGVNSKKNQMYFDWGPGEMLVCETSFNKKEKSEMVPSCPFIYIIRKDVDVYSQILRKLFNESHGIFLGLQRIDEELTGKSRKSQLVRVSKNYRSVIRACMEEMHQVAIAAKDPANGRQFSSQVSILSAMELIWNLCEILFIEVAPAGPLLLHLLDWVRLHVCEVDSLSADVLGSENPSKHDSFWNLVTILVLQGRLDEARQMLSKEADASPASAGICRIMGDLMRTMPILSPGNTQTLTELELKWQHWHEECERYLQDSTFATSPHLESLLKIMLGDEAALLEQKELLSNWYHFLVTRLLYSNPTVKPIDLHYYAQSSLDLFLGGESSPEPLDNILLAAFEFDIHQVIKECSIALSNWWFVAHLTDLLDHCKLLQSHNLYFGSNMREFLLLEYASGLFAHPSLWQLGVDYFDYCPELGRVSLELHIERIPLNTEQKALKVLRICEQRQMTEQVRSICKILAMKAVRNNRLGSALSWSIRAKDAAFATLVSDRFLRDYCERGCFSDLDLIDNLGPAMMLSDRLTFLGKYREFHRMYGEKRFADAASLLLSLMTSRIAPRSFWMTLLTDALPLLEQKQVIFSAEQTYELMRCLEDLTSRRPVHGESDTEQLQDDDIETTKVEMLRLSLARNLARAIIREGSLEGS
UniProt Q9BZD4: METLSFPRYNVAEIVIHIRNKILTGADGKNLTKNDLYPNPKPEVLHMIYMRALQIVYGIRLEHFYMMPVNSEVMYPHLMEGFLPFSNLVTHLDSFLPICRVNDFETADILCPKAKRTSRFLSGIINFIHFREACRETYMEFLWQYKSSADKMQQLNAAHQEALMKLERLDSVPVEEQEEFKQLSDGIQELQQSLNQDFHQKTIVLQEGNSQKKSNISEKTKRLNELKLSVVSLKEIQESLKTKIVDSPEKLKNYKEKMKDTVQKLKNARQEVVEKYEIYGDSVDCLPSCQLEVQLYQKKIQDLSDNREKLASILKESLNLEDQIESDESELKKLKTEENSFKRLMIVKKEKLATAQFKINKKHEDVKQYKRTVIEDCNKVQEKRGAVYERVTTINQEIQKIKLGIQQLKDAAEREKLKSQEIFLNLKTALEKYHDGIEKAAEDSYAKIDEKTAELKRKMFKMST
UniProt Q9Y6K5: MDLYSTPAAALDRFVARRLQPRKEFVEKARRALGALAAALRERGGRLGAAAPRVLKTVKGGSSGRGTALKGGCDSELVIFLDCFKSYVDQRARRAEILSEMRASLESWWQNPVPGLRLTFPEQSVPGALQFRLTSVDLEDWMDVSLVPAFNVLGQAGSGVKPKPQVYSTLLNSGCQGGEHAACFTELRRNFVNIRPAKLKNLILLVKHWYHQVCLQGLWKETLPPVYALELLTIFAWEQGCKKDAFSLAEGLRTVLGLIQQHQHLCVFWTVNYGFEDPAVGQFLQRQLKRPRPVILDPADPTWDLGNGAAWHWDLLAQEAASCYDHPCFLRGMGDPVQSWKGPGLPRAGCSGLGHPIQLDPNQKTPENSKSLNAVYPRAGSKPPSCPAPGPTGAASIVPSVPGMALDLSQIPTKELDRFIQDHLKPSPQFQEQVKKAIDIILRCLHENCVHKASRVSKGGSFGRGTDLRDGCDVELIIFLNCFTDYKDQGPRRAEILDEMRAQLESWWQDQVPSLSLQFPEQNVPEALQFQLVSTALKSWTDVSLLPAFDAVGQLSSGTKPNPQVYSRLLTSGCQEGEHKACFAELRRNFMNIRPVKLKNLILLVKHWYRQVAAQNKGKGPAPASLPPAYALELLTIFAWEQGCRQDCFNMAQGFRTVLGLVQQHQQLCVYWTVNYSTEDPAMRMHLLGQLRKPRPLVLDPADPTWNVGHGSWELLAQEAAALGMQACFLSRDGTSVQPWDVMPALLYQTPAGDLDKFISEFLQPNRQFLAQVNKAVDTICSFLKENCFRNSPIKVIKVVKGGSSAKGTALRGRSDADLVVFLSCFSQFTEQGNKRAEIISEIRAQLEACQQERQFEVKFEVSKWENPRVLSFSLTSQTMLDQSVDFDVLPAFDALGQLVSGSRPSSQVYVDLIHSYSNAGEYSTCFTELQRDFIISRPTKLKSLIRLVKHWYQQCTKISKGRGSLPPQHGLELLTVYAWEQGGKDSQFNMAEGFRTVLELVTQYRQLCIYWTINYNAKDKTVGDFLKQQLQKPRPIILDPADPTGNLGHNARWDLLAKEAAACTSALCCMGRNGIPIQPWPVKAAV
UniProt Q8TEM1: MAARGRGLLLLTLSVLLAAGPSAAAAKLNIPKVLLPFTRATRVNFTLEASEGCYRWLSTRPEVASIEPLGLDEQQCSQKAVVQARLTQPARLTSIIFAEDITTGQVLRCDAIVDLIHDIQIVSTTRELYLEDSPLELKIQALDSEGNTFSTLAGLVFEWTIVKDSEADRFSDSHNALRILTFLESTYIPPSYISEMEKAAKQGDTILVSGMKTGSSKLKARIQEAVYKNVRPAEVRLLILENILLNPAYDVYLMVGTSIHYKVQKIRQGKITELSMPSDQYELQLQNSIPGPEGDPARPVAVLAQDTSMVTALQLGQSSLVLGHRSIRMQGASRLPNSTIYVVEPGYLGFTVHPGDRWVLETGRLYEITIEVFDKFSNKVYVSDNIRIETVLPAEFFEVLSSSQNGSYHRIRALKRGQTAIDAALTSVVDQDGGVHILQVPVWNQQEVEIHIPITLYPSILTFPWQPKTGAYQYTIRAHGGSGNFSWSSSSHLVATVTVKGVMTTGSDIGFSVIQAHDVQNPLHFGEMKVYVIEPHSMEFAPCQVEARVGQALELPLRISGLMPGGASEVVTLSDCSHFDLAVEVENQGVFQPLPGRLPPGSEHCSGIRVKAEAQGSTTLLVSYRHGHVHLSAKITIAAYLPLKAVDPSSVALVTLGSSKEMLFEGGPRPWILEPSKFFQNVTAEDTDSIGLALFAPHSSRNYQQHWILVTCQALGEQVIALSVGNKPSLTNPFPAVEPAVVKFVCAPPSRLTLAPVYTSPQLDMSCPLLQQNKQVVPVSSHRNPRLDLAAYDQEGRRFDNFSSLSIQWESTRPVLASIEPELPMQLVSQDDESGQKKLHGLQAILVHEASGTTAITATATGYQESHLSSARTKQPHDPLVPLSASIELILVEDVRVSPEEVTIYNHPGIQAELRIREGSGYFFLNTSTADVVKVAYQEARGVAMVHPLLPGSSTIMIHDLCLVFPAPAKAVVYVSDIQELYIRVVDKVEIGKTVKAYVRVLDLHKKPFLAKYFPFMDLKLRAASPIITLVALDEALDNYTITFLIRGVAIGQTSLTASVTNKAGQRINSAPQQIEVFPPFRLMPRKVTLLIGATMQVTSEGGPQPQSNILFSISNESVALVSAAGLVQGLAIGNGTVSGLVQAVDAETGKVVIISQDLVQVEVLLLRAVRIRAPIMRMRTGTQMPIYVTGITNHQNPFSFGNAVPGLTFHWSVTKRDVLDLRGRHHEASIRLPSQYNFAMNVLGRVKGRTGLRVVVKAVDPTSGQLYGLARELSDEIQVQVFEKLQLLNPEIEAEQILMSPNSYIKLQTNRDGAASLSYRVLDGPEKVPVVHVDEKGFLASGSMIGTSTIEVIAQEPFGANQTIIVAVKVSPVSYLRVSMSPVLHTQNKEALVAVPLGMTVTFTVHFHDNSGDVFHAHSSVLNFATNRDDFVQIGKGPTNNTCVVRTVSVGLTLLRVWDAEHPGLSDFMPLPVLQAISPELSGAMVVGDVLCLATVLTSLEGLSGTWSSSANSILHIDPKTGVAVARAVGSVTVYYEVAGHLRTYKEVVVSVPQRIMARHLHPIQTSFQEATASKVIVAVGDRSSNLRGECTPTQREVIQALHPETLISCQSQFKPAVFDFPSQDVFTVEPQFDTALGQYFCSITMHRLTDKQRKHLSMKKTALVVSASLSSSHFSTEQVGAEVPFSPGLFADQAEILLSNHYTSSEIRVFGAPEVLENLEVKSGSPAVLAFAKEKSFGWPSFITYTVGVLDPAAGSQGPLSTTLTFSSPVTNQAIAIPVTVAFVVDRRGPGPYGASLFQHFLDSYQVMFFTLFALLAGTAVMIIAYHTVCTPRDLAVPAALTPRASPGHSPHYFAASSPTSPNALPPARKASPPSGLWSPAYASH

Compound: CC1Cc2ccccc2N1C(=O)C1CCCN(C1)C(=O)CCl (mixture of isomers) [TRIM25 ligand 11 (diastereomer mixture)]
Assay: probe-labelled cysteine peptide fold change vs DMSO (competition) (log2 fold change); higher = less target engagement (more negative = stronger competition)
Conditions: THP-1, incubation time: 4 h
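Note: competitive chemoproteomic profiling in live THP-1 cells with an iodoacetamide desthiobiotin (IA-DTB) probe, comparing probe-labelled peptide intensities in compound-treated cells against DMSO-treated controls.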

Row | Target | probe-labelled cysteine peptide fold change (10 µM) | probe-labelled cysteine peptide fold change (50 µM)
1 | NXF1_Q9UBU9_143_CSVPFTPIEFHYENTR (UniProt Q9UBU9) | -0.172 | 0.46
2 | NUP160_Q12769_318_EQMCLMVADMLEYVPVKK (UniProt Q12769) | 0.169 | 0.0933
3 | NUDT2_P50583_123_WLGLEEACQLAQFK (UniProt P50583) | -0.024 | -0.118
4 | NUDCD2_Q8WVJ2_45_AQDIQCGLQSR (UniProt Q8WVJ2) | -0.0124 | 0.0403
5 | OGA_O60502_896_LGCFEIAK (UniProt O60502) | 0.0886 | 0.0375
6 | OGDH_Q02218_956_YPNAELAWCQEEHK (UniProt Q02218) | -0.0561 | -0.162
7 | NUP153_P49790_731_FKPVIGTWDCDTCLVQNKPEAIK (UniProt P49790) | 0.00899 | -0.00158
8 | NUB1_Q9Y5A7_400_ACDGNVDHAATHITNRR (UniProt Q9Y5A7) | -0.102 | -0.274
9 | NUP205_Q92621_237_QSLAESLFAWACQSPLGK (UniProt Q92621) | 0.114 | 0.15
10 | OGFOD1_Q8N543_143_IDLESTIDMSCAK (UniProt Q8N543) | 0.216 | 0.0501
11 | NUS1_Q96E22_164_QQQELLGLDCSK (UniProt Q96E22) | 0.279 | -0.0354
12 | NT5DC3_Q86UY8_506_FADIYMASLSCLLNYDVSHTFYPR (UniProt Q86UY8) | -0.461 | -0.393
13 | NUP85_Q9BW27_230_EADASPASAGICR (UniProt Q9BW27) | -0.0499 | 0.00531
14 | NUP85_Q9BW27_603_CLEDLTSR (UniProt Q9BW27) | 0.0545 | 0.135
15 | NUP88_Q99567_561_DIAPPPEECLQLLSR (UniProt Q99567) | -0.0661 | -0.136
16 | NUP88_Q99567_608_QLEDLSYCR (UniProt Q99567) | -0.106 | -0.157
17 | OGDH_Q02218_283_RFGLEGCEVLIPALK (UniProt Q02218) | 0.00857 | 0.124
18 | NUTF2_P61970_80_IQHSITAQDHQPTPDSCIISMVVGQLKADEDPIMGFHQMFLLK (UniProt P61970) | -0.758 | -0.409
19 | NUF2_Q9BZD4_111_VNDFETADILCPK (UniProt Q9BZD4) | -0.0887 | 0.000441
20 | OAS3_Q9Y6K5_956_HWYQQCTK (UniProt Q9Y6K5) | -0.273 | -0.0723
21 | OAS3_Q9Y6K5_350_AGCSGLGHPIQLDPNQK (UniProt Q9Y6K5) | -0.0319 | -0.0671

Row | Target | probe-labelled cysteine peptide fold change (10 µM) | probe-labelled cysteine peptide fold change (50 µM)
22 | NUP210_Q8TEM1_1611_EVIQALHPETLISCQSQFK (UniProt Q8TEM1) | 0.167 | 0.35
23 | NUDCD1_Q96RS6_111_LPTDLTACDNR (UniProt Q96RS6) | 0.181 | 0.22
24 | OCIAD2_Q56VL3_27_QSLLFCPK (UniProt Q56VL3) | -0.065 | -0.0766
25 | NUMA1_Q14980-4_1729_SREPQAKPQLDLSIDSLDLSCEEGTPLSITR (UniProt Q14980) | -0.128 | -0.0534
26 | NUP205_Q92621_698_CEEYPLTR (UniProt Q92621) | 0.137 | 0.196
27 | NUMB_P49757_58_GMHICEDAVKR (UniProt P49757) | -0.162 | -0.22
28 | OCRL_Q01968_104_RFEIPDEEHCLK (UniProt Q01968) | -0.0187 | -0.0562
29 | NUP133_Q8WUM0_457_IVFNAQGDSVLGAGACGGVPIIFSR (UniProt Q8WUM0) | -0.146 | -0.142
30 | NUDT21_O43809_144_QDGVLQDWVIDDCIGNWWR (UniProt O43809) | 0.209 | 0.458
31 | NUP205_Q92621_1216_AQIEQVIANCEHK (UniProt Q92621) | 0.206 | 0.15
32 | OAS2_P29728_652_TRPVILDPAEPTGDVGGGDRWCWHLLAK (UniProt P29728) | -0.256 | -0.0825
33 | NUF2_Q9BZD4_377_TVIEDCNK (UniProt Q9BZD4) | 0.0266 | -0.0213
34 | NUB1_Q9Y5A7_400_ACDGNVDHAATHITNR (UniProt Q9Y5A7) | 0.204 | 0.013
35 | NUFIP2_Q7Z417_234_GCENLNIVQDK (UniProt Q7Z417) | -0.0264 | 0.102
36 | OGDH_Q02218_331_ELEQIFCQFDSK (UniProt Q02218) | 0.0951 | 0.129
37 | NUP160_Q12769_1042_QLVVVLCER (UniProt Q12769) | 0.25 | 0.0629
38 | NUTF2_P61970_114_NINDAWVCTNDMFR (UniProt P61970) | -0.0149 | -0.0609
39 | NUP153_P49790_874_CLACESAKPGTK (UniProt P49790) | -0.0887 | 0.0755
40 | NUP160_Q12769_1166_NHDGECTAAPTNR (UniProt Q12769) | -0.19 | -0.197
41 | NUP205_Q92621_141_CIANSLK (UniProt Q92621) | 0.109 | 0.156

Excerpt: entries 14–22
Row | Target | probe-labelled cysteine peptide fold change (10 µM) | probe-labelled cysteine peptide fold change (50 µM)
14 | NUP85_Q9BW27_603_CLEDLTSR (UniProt Q9BW27) | 0.0545 | 0.135
15 | NUP88_Q99567_561_DIAPPPEECLQLLSR (UniProt Q99567) | -0.0661 | -0.136
16 | NUP88_Q99567_608_QLEDLSYCR (UniProt Q99567) | -0.106 | -0.157
17 | OGDH_Q02218_283_RFGLEGCEVLIPALK (UniProt Q02218) | 0.00857 | 0.124
18 | NUTF2_P61970_80_IQHSITAQDHQPTPDSCIISMVVGQLKADEDPIMGFHQMFLLK (UniProt P61970) | -0.758 | -0.409
19 | NUF2_Q9BZD4_111_VNDFETADILCPK (UniProt Q9BZD4) | -0.0887 | 0.000441
20 | OAS3_Q9Y6K5_956_HWYQQCTK (UniProt Q9Y6K5) | -0.273 | -0.0723
21 | OAS3_Q9Y6K5_350_AGCSGLGHPIQLDPNQK (UniProt Q9Y6K5) | -0.0319 | -0.0671
22 | NUP210_Q8TEM1_1611_EVIQALHPETLISCQSQFK (UniProt Q8TEM1) | 0.167 | 0.35
